In PubChem BioAssay AID328 (DTP/NCI, 2004):
The list shows only some results of the screen, not a fair sample: it gathers tests that were run many times, whatever their T/C, doses with no T/C, and many T/C values between a quarter and a half above the control. Other doses and runs of a compound stand elsewhere. T/C: endpoint of the treated group in % of that of the vehicle group. Some doses have a count of surviving animals in place of a T/C: the source files T/C as zero there, which appears to mark a toxic dose or a test without result, not a measured value. Some doses without a T/C left all or most animals alive at the check, yet need not have been tolerated: survival well below the control is almost never listed, so the zero probably covers shortened survival too. Survivors were counted at the toxicity check, usually on the fifth day, unless a day is given; later deaths do not show. Schedules are NCI's codes, read here as Q, the interval in days (D) or hours (H), X, the number of doses. Some doses were run more than once; the values are given in rising order. Where survival is the endpoint, this PubChem deposit counts one and a half times the control or more as active, and values a quarter to a half above the control carry no call in these data; other NCI protocols may use other cut-offs. Some T/C values carry the count of animals alive at the toxicity check (mostly the fifth day); where none is given, no animal had died by that day.

Test system: BDF1 mice, P388 leukemia ip, median survival T/C
Assay: NCI In Vivo Anticancer Drug Screen. Data for tumor model P388 Leukemia (intraperitoneal) in B6D2F1 (BDF1) mice
Details: T/C endpoint: median survival time, higher T/C = longer survival
Summary of the method: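 Steps: implant the tumour, treat one group with compound and another with vehicle, record survival, then divide treated by control.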

[1] = dose: 50.0 mg/kg/injection, schedule: Q01DX009 (ip), vehicle: saline with Tween-80
[2] = dose: 200.0 mg/kg/injection, schedule: Q01DX009 (ip), vehicle: saline with Tween-80
[3] = dose: 200.0 mg/kg/injection, schedule: Q04DX003 (ip), vehicle: saline with Tween-80
[4] = dose: 0.75 mg/kg/injection, schedule: Q01DX010 (ip), vehicle: saline
[5] = dose: 1.0 mg/kg/injection, schedule: Q01DX010 (ip), vehicle: saline
[6] = dose: 1.5 mg/kg/injection, schedule: Q01DX010 (ip), vehicle: saline
[7] = dose: 3.0 mg/kg/injection, schedule: Q01DX010 (ip), vehicle: saline

## COC(=O)C(N)CCCCNc1ccc2c(cc1=O)C(NC(C)=O)CCc1cc(OC)c(OC)c(OC)c1-2 (stereo not given)
dose: 25.0 mg/kg/injection, schedule: Q01DX009 (ip), vehicle: saline with Tween-80
  T/C: 143 % of control
[1]
  T/C: 133 % of control
dose: 59.0 mg/kg/injection, schedule: Q01DX009 (ip), vehicle: saline with Tween-80
  T/C: 132 % of control
dose: 88.0 mg/kg/injection, schedule: Q01DX009 (ip), vehicle: saline with Tween-80
  T/C: 141 % of control
dose: 100.0 mg/kg/injection, schedule: Q01DX009 (ip), vehicle: saline with Tween-80
  T/C: 133 % of control
dose: 132.0 mg/kg/injection, schedule: Q01DX009 (ip), vehicle: saline with Tween-80
  T/C: 135 % of control
[2]
  T/C: 136 % of control
dose: 400.0 mg/kg/injection, schedule: Q01DX009 (ip), vehicle: saline with Tween-80
  survivor count: 4 of 6

## Nc1ccccc1-n1nc2ccc3ccccc3c2n1
[2]
  T/C: 130 % of control

## O=C(O)C1CCC2(CCCCC2)CC1
dose: 50.0 mg/kg/injection, schedule: Q04DX003 (ip), vehicle: water, evaluated on day 20
  T/C: 101 % of control
dose: 50.0 mg/kg/injection, schedule: Q04DX003 (ip), vehicle: water, evaluated on day 30
  T/C: 102 [5 of 6 alive] and 104 % of control
dose: 50.0 mg/kg/injection, schedule: Q04DX003 (ip), vehicle: water
  survivor count: 6 of 6
dose: 100.0 mg/kg/injection, schedule: Q04DX003 (ip), vehicle: water, evaluated on day 20
  T/C: 130 % of control
dose: 100.0 mg/kg/injection, schedule: Q04DX003 (ip), vehicle: water, evaluated on day 30
  T/C: 91 % of control
dose: 100.0 mg/kg/injection, schedule: Q04DX003 (ip), vehicle: water
  survivor count: 5 of 6
dose: 200.0 mg/kg/injection, schedule: Q01DX009 (ip), vehicle: water
  survivor count: 4 of 6
dose: 200.0 mg/kg/injection, schedule: Q04DX003 (ip), vehicle: water, evaluated on day 20
  T/C: 106 % of control [5 of 6 alive]
dose: 200.0 mg/kg/injection, schedule: Q04DX003 (ip), vehicle: water, evaluated on day 30
  T/C: 94 [5 of 6 alive] and 100 % of control
dose: 200.0 mg/kg/injection, schedule: Q04DX003 (ip), vehicle: water
  survivor count: 6 of 6
dose: 400.0 mg/kg/injection, schedule: Q04DX003 (ip), vehicle: water
  survivor count: 4 of 6

## CSc1nc(Cl)c(Br)c(Sc2nc(N)nc3nc[nH]c23)n1
[3]
  T/C: 129 % of control
dose: 300.0 mg/kg/injection, schedule: Q04DX003 (ip), vehicle: saline with Tween-80
  T/C: 125 % of control

## CSc1nc2nc(Cl)c(Cl)nc2[nH]1
dose: 12.5 mg/kg/injection, schedule: Q01DX009 (ip), vehicle: saline
  survivor count: 6 of 6
dose: 50.0 mg/kg/injection, schedule: Q01DX009 (ip), vehicle: saline
  survivor count: 6 of 6
dose: 200.0 mg/kg/injection, schedule: Q04DX003 (ip), vehicle: saline
  survivor count: 3 of 6
dose: 400.0 mg/kg/injection, schedule: Q04DX003 (ip), vehicle: saline
  survivor count: 3 of 6

## COC12C(COC(N)=O)C3=C(C(=O)C(C)=C(N)C3=O)N1CC1C2N1C (stereo not given)
dose: 32.0 mg/kg/injection, schedule: Q01DX009 (ip), vehicle: saline
  survivor count: 10 of 10

## CN([NH-])C(=S)[S-].CN([NH-])C(=S)[S-].[Ni]
dose: 100.0 mg/kg/injection, schedule: Q04DX003 (ip), vehicle: saline with Tween-80
  T/C: 125 % of control
[3]
  T/C: 125 % of control
dose: 400.0 mg/kg/injection, schedule: Q04DX003 (ip), vehicle: saline with Tween-80
  T/C: 127 % of control

## COc1ccc([C@@H]2c3cc4c(cc3C[C@H]3COC(=O)[C@@H]32)OCO4)cc1OC
[1]
  T/C: 127 % of control

## COC(=O)[C@@H]1c2cc3c(c(O)c2[C@@H](OC2OC(C)C(OC)C(C)(OC)C2OC)C[C@]1(C)O)C(=O)c1c(O)cc2c(c1C3=O)O[C@H]1O[C@]2(C)[C@H](O)[C@@H](N(C)C)[C@@H]1O (stereo not given in full)
dose: 0.13 mg/kg/injection, schedule: Q01DX010 (ip), vehicle: saline
  T/C: 140 % of control
dose: 0.19 mg/kg/injection, schedule: Q01DX010 (ip), vehicle: saline
  T/C: 127 % of control
dose: 0.25 mg/kg/injection, schedule: Q01DX009 (ip), vehicle: saline
  T/C: 140 % of control
dose: 0.25 mg/kg/injection, schedule: Q01DX010 (ip), vehicle: saline
  T/C: 127 [5 of 6 alive] and 140 % of control
dose: 0.38 mg/kg/injection, schedule: Q01DX010 (ip), vehicle: saline
  survivor count: 6 of 6
dose: 0.5 mg/kg/injection, schedule: Q01DX009 (ip), vehicle: saline
  T/C: 140 % of control
dose: 0.5 mg/kg/injection, schedule: Q01DX010 (ip), vehicle: saline
  T/C: 127 % of control
dose: 0.65 mg/kg/injection, schedule: Q04DX003 (ip), vehicle: water
  T/C: 144 % of control
dose: 0.75 mg/kg/injection, schedule: Q01DX001 (ip), vehicle: saline
  T/C: 127 % of control
[4]
  T/C: 122, 131, 145 % of control
  survivor count: 6 of 6
[5]
  T/C: 140 % of control
  survivor count: 7 of 7
dose: 1.08 mg/kg/injection, schedule: Q04DX003 (ip), vehicle: water
  T/C: 147 % of control
dose: 1.3 mg/kg/injection, schedule: Q04DX003 (ip), vehicle: water
  T/C: 130 % of control
dose: 1.5 mg/kg/injection, schedule: Q01DX001 (ip), vehicle: saline
  T/C: 127 % of control
[6]
  T/C: 131 [9 of 10 alive] and 140 % of control
  survivor count: 5 of 6 and 6 of 6
dose: 1.8 mg/kg/injection, schedule: Q04DX003 (ip), vehicle: water
  T/C: 147 % of control
dose: 2.0 mg/kg/injection, schedule: Q01DX010 (ip), vehicle: saline
  survivor count: 5 of 7 and 6 of 6
dose: 3.0 mg/kg/injection, schedule: Q01DX001 (ip), vehicle: saline
  T/C: 136 % of control
[7]
  T/C: 145 % of control
  survivor count: 0 of 6, 2 of 6, 10 of 10
dose: 3.6 mg/kg/injection, schedule: Q04DX003 (ip), vehicle: water
  survivor count: 7 of 8
dose: 4.0 mg/kg/injection, schedule: Q01DX010 (ip), vehicle: saline
  survivor count: 3 of 6
dose: 6.0 mg/kg/injection, schedule: Q01DX001 (ip), vehicle: saline
  T/C: 131 % of control
dose: 6.0 mg/kg/injection, schedule: Q01DX010 (ip), vehicle: saline
  survivor count: 4 of 10 and 10 of 10
dose: 6.0 mg/kg/injection, schedule: Q04DX003 (ip), vehicle: water
  survivor count: 2 of 8
dose: 12.0 mg/kg/injection, schedule: Q01DX001 (ip), vehicle: saline
  T/C: 145 % of control [7 of 10 alive]
dose: 12.0 mg/kg/injection, schedule: Q01DX010 (ip), vehicle: saline
  survivor count: 0 of 10 and 1 of 10
dose: 60.0 micrograms/kg/injection, schedule: Q01DX010 (ip), vehicle: saline
  T/C: 130 % of control

## CN(C)c1ccc(C(=C2C=CC(=[N+](C)C)C=C2)c2ccc(N(C)C)cc2)cc1
dose: 3.12 mg/kg/injection, schedule: Q01DX009 (ip), vehicle: saline
  survivor count: 4 of 6
dose: 6.25 mg/kg/injection, schedule: Q04DX003 (ip), vehicle: saline
  survivor count: 4 of 6
dose: 100.0 mg/kg/injection, schedule: Q04DX003 (ip), vehicle: alcohol
  survivor count: 6 of 6
dose: 200.0 mg/kg/injection, schedule: Q04DX003 (ip), vehicle: alcohol
  survivor count: 2 of 6
dose: 400.0 mg/kg/injection, schedule: Q04DX003 (ip), vehicle: alcohol
  survivor count: 0 of 6

## CSc1cccc(NC(=O)Oc2cc(C)c(Cl)c(C)c2Cl)c1
dose: 25.0 mg/kg/injection, schedule: Q01DX009 (ip), vehicle: DMSO
  survivor count: 4 of 6

## COc1cc(C=Nc2cc(Cl)c(O)c(Cl)c2)ccc1N(CCCl)CCCl
dose: 3.0 mg/kg/injection, schedule: Q04DX003 (ip), vehicle: saline with Tween-80
  T/C: 140 % of control
dose: 25.0 mg/kg/injection, schedule: Q04DX003 (ip), vehicle: saline with Tween-80
  T/C: 144 % of control
